Data from US20150141342A1, “BLOOD BORNE miRNA SIGNATURE FOR THE ACCURATE DIAGNOSIS OF PANCREATIC DUCTAL ADENOCARCINOMA” (Indiana University Research and Technology Corp., priority 2013, published 2015).
At least one compound was matched to its structure with a doubt left.

Assays:
COLO-357 cells = assay: Matrigel transwell invasion assay, COLO-357; type: cell-based, human; conditions: COLO-357 transfected with miR-10b precursor, 1 nM EGF, 20 h; erlotinib 2 μM, LY294002 10 μM, UO126 1 μM
Experimental: (§1) Invasion and Migration Assays. miR-10b precursor and precursor control transfected cells (5×104) were plated in Matrigel pre-coated transwell chambers (BD Biosciences, San Jose, Calif.) and assays performed as previously reported. UO126 (1 μM) were from Alexis Biochemicals (San Diego, Calif.). Erlotinib (2 μM; Genentech, Inc., South San Francisco, Calif.), and LY294002 (10 μM; Calbiochem, San Diego, Calif.), were added to SF in the lower chamber, in the absence or presence of 1 nM EGF and/or 0.5 nM TGF-β1. Wound healing assays were performed as previously reported. Briefly, 24 hours after cell transfection with pre-miR-10b oligonucleotides, cells were serum starved overnight, and the monolayer was scratched with a 200 μL pipette tip generating two parallel wounds. Cells were then rinsed twice with HBSS and incubated for 24 h in SF media in the absence or presence of 1 nM EGF, 0.5 nM TGF-β1, or their combination, and migration was calculated as the percent change in the wound area.

PANC-1 cells = assay: Matrigel transwell invasion assay, PANC-1; type: cell-based, human; conditions: PANC-1 transfected with miR-10b precursor, 1 nM EGF, 20 h; erlotinib 2 μM, LY294002 10 μM, UO126 1 μM
Experimental: as §1

With O=c1cc(N2CCOCC2)oc2c(-c3ccccc3)cccc12 [LY294002] the “EGF-induced invasion in the presence of miR-10b” value (COLO-357 cells) was “partially blocked” and the “EGF-induced invasion in the presence of miR-10b” value (PANC-1 cells) was “partially blocked”.
